Results are given in words; binding and its absence hold for the method and conditions named. Tags and fused reporters may be left off the sequences shown.
Assays:
MBP-N-Opi1^N150D = target: T1, MBP-N-Opi1^N150D (S. cerevisiae, UniProt P21957 1-190, N150D); test: SEC; 0.5 mg of affinity-purified MBP fusion on Superdex 200 Increase 10/300 GL, 20 mM Tris-HCl pH 7.4, 150 mM NaCl, 0.5 ml/min; molecular weights estimated from calibration markers; both purified
T1 construct: Opi1, S. cerevisiae, N terminus from aa1 to aa190 (N-Opi1) with N150D; pMAL-c expression vector; amplified from mutant OPI1 DNA template; source: for SEC further run on Superdex 200 Increase; not shown: MBP, N-terminal, kept
T1 sequence (looked up): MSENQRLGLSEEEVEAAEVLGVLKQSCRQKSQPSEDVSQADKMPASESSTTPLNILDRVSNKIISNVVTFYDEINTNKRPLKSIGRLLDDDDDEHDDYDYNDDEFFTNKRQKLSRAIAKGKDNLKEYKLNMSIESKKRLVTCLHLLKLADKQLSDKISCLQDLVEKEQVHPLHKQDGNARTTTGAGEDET

[1] = target: T2, GST-M-Opi1 (glutathione-S-transferase fused to Opi1 aa191-290) (S. cerevisiae) (UniProt P21957); test: pull-down; around 0.5 ug bait on amylose resin or glutathione-Sepharose with 1.5 ug prey of the alternate tag in 100 ul binding buffer (20 mM Tris-HCl pH 8, 150 mM NaCl, 1 mM EDTA, 1 mM DTT, 20% glycerol, 0.05% Triton X-100) with 50 ug/ml BSA, 2 h at 4 C; bait eluted with its ligand, prey detected by Western blot against MBP or GST; both purified
T2 sequence: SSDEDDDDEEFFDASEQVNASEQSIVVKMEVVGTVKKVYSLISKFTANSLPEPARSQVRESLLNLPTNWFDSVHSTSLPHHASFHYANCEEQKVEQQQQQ

[2] = target: T3, GST-C-Opi1^WT (glutathione-S-transferase fused to Opi1 aa291-404) (S. cerevisiae) (UniProt P21957); test: as above
T3 sequence: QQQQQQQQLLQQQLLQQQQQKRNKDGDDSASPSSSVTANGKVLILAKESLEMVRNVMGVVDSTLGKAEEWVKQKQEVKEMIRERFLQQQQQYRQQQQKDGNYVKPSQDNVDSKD

[3] = target: T4, GST-N-Opi1^WT (glutathione-S-transferase fused to Opi1 aa1-190) (S. cerevisiae) (UniProt P21957); test: as above
T4 sequence: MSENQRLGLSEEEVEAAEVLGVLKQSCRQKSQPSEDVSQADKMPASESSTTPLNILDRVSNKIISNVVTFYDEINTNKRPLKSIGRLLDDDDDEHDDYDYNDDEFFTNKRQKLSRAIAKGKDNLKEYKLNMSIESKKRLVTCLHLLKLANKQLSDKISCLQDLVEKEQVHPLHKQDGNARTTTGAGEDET

[4] = target: T5, MBP-N-Opi1^WT (maltose-binding protein fused to the N-terminal Opi1^1-190 polypeptide) (S. cerevisiae) (UniProt P21957); test: as above
T5 sequence: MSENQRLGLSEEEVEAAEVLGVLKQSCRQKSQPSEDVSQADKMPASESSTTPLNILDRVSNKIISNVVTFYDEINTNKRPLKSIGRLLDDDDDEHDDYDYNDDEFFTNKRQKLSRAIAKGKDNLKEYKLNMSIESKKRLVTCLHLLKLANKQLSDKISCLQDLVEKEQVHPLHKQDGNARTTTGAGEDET

[5] = target: T6, MBP-C-Opi1^WT (maltose-binding protein fused to Opi1 aa291-404) (S. cerevisiae) (UniProt P21957); test: as above
T6 sequence: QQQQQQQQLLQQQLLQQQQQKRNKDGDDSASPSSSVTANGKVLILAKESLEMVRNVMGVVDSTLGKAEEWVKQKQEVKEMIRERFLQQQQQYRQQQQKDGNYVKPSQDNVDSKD

B1: MBP-N-Opi1^N150D (domain or fragment, UniProt P21957 1-190)
chain: MSENQRLGLSEEEVEAAEVLGVLKQSCRQKSQPSEDVSQADKMPASESSTTPLNILDRVSNKIISNVVTFYDEINTNKRPLKSIGRLLDDDDDEHDDYDYNDDEFFTNKRQKLSRAIAKGKDNLKEYKLNMSIESKKRLVTCLHLLKLADKQLSDKISCLQDLVEKEQVHPLHKQDGNARTTTGAGEDET
With B1 the binding (MBP-N-Opi1^N150D) was “no binding (tested: 0.5 mg loaded)”.

B2: MBP-M-Opi1 (maltose-binding protein fused to Opi1 aa191-290) (domain or fragment, UniProt P21957 191-290)
chain: SSDEDDDDEEFFDASEQVNASEQSIVVKMEVVGTVKKVYSLISKFTANSLPEPARSQVRESLLNLPTNWFDSVHSTSLPHHASFHYANCEEQKVEQQQQQ
For B2, the binding [1] was “no binding (tested: 1.5 μg of prey protein in 100 μl)”, the binding [2] was “no binding (tested: 1.5 μg of prey protein in 100 μl)” and the binding [3] was “no binding (tested: 1.5 μg of prey protein in 100 μl)”.

B3: GST-M-Opi1 (glutathione-S-transferase fused to Opi1 aa191-290) (domain or fragment, UniProt P21957 191-290)
chain: SSDEDDDDEEFFDASEQVNASEQSIVVKMEVVGTVKKVYSLISKFTANSLPEPARSQVRESLLNLPTNWFDSVHSTSLPHHASFHYANCEEQKVEQQQQQ
In the case of B3, the binding [4] is reported as “no binding (tested: 1.5 μg of prey protein in 100 μl)” and the binding [5] is reported as “no binding (tested: 1.5 μg of prey protein in 100 μl)”.

— publication PMC10709064, “The leucine zipper domain of the transcriptional repressor Opi1 underlies a signal transduction mechanism regulating lipid synthesis” (The Journal of Biological Chemistry, 2023)
